No constants are given. Whether binding was seen depends on the method and setting. Binding seen in cells or lysates may run through a third protein. Some results given as binding are weak or reduced against the parent protein; the word gives no strength.

Amino acid sequences for entries named in this document (tags omitted).
UniProt Q15672: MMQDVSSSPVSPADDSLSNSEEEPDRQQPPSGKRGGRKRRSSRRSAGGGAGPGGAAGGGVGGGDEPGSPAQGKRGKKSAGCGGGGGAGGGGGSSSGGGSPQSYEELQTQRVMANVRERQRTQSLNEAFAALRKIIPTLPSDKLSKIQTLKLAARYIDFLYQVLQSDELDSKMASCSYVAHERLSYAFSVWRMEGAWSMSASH
UniProt Q8N1E6: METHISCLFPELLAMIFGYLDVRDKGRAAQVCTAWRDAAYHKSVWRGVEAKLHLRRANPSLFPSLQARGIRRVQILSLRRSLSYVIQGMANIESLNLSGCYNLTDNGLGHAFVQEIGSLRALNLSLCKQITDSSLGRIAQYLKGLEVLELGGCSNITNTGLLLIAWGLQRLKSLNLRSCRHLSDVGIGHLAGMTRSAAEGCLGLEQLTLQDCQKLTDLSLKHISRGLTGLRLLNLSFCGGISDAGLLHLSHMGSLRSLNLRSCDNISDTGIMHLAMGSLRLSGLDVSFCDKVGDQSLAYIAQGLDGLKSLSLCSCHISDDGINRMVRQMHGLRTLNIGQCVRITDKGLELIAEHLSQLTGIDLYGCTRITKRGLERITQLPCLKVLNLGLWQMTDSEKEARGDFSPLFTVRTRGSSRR

Binding data for one substance are collected here from publication PMC8292372.

In experiment [1] the target is TWIST1 (UniProt Q15672). Nature of the experiment: proximity ligation; in situ PLA in A549 and H1299 cells.
The target of experiment [2] is TWIST1 (UniProt Q15672). Nature of the experiment: co-IP; co-immunoprecipitation with Myc or HA antibody and western blot, HEK293T cells.

Regarding FBXL14 (from UniProt Q8N1E6 1-418), the binding result with TWIST1 [1] and with TWIST1 [2] was “binds” throughout.
